Values quoted from earlier work as cited in patent US20090030055A1, “PKC activation as a means for enhancing s[sequence] secretion and improving cognition using bryostatin type compounds” (priority 2002, published 2009).

Tested on: sAPP secretion, AD fibroblasts
Details: both control and AD fibroblasts; cited from earlier work

For CN[C@@H]1C[C@H]2O[C@@](C)([C@@H]1OC)n1c3ccccc3c3c4c(c5c6ccccc6n2c5c31)C(=O)NC4 [staurosporin], which “effect of PKC inhibitor on benzolactam-induced sAPP secretion” value is on record?
The value was “eliminated the effects of benzolactam”.
